Laboratory results: publication PMC7884786 (Translational Psychiatry, 2021)
These are yes or no findings as the source states them, for the method shown. Binding seen in cells or lysates may run through a third protein. Some results given as binding are weak or reduced against the parent protein; the word gives no strength.

Protein sequences, listed by entry. Tags and fused reporters are not part of them.
UniProt P22909: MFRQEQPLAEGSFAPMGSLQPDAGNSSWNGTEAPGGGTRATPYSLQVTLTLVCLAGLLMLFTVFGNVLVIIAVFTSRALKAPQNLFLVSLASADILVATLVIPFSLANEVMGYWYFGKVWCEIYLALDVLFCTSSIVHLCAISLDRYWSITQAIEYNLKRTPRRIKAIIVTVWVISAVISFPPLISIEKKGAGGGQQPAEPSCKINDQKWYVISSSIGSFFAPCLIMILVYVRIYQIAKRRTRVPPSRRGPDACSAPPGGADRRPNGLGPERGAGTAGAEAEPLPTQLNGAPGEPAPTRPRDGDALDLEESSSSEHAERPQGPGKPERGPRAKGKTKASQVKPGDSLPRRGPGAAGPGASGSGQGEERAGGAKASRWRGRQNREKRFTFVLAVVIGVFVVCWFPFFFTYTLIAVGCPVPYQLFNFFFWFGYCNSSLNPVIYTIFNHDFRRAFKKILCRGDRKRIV
UniProt P63096: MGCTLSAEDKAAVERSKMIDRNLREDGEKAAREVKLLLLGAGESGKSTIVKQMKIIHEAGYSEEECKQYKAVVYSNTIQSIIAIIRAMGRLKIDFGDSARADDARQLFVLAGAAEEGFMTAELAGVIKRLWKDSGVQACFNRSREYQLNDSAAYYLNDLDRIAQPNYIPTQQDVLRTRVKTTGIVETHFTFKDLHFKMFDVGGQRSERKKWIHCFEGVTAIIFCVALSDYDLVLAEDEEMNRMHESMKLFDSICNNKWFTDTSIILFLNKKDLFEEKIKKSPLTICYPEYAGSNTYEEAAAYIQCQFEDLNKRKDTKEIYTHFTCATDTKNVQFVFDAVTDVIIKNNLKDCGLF
UniProt P32121: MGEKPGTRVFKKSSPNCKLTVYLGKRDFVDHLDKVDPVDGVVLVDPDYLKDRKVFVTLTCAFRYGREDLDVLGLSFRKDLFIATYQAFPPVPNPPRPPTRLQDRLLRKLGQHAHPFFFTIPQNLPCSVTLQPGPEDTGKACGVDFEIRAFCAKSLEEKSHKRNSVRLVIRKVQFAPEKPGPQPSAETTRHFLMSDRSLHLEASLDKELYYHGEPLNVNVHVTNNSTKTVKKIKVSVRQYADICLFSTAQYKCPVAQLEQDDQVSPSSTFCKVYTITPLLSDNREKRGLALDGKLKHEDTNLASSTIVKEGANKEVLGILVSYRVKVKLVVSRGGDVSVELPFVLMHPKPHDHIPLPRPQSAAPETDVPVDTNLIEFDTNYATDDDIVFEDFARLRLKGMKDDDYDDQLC

Target: rat α2A-adrenergic receptor fused to HaloTag at the C-terminus (α2A-AR-HaloTag) (rat) (UniProt P22909)
Test: FRET or BRET; nanoBRET in living HEK-293T cells co-transfected with HaloTag-receptor (618 ligand, acceptor) and NanoLuc-Gαi1(91) or NanoLuc-β-arrestin2 (donor); concentration-response to NE or DA, read 5 min after drug addition; 5 μM furimazine; signal corrected by NanoLuc-only cells

| Substance | binding |
| --- | --- |
| human Gαi1 with nanoluciferase (NanoLuc) inserted at position 91 (NanoLuc-Gαi1(91)) (from UniProt P63096 1-354) | binds |
| human β-arrestin2 fused with NanoLuc at the N terminus (NanoLuc-β-arrestin2) (from UniProt P32121 1-409) | binds |
